Data source: PubChem BioAssay AID1259308 (NCATS, 2017)
Purpose: 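Genes whose loss raises luciferase production in HEK293 cells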 (primary screen). System: human HEK293 embryonic kidney cells stably expressing firefly luciferase (HEK-CMV-Luc2-Hygro). Reagents: single siRNA against human genes, 0.8 pmol siRNA per well. Time to read-out: 72 h. Detection: 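Luciferase light (ONE-Glo) measured on one replicate plate set and viability (CellTiter-Glo) on the other, scaled to a negative control siRNA, with robust z-scores and luciferase per cell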. Reading the numbers: total luciferase, z-score: higher = more reporter protein produced. Call rule: 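Active when the median/MAD z-score for overall luciferase is greater than 3; a gene was taken forward for validation with new siRNAs if at least two of its three siRNAs passed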. Calls: active = raised luciferase; inactive = no rise.
The deposit covers about 59,000 reagents; shown is an unselected part. About 1,510 of them (2.6%) count as active. 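Calls use total luciferase alone and ignore viability, so some active siRNAs may act by altering cell number.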 Reagents against one gene are numbered here. Not all columns of the deposit are shown.

Target gene | siRNA no. | total luciferase, z-score | call
RENBP | 1 | 0.133 | inactive
RENBP | 2 | 1.52 | inactive
RENBP | 3 | 0.663 | inactive
HHIPL2 | 1 | -0.852 | inactive
HHIPL2 | 2 | 0.759 | inactive
HHIPL2 | 3 | 1.06 | inactive
TP53BP2 | 1 | 2.51 | inactive
TP53BP2 | 2 | 1.86 | inactive
TP53BP2 | 3 | 0.772 | inactive
PLEKHM1 | 1 | 0.228 | inactive
PLEKHM1 | 2 | -0.479 | inactive
PLEKHM1 | 3 | -0.903 | inactive
ILK | 1 | 0.294 | inactive
ILK | 2 | 0.948 | inactive
ILK | 3 | -1.4 | inactive
PLEKHG7 | 1 | -1.73 | inactive
PLEKHG7 | 2 | -0.873 | inactive
PLEKHG7 | 3 | 0.736 | inactive
PLEKHG7 | 4 | 0.118 | inactive
PLEKHG7 | 5 | 0.967 | inactive
PLEKHG7 | 6 | 0.145 | inactive

3 successive records from above, quoted:
Target gene | siRNA no. | total luciferase, z-score | call
PLEKHG7 | 1 | -1.73 | inactive
PLEKHG7 | 2 | -0.873 | inactive
PLEKHG7 | 3 | 0.736 | inactive

Additional entries follow:
Target gene | siRNA no. | total luciferase, z-score | call
LRRN3 | 1 | -0.627 | inactive
LRRN3 | 2 | 2.74 | inactive
LRRN3 | 3 | -0.56 | inactive
SUB1 | 1 | -1.24 | inactive
SUB1 | 2 | -0.236 | inactive
SUB1 | 3 | -1.88 | inactive
MPIG6B | 1 | -0.0814 | inactive
MPIG6B | 2 | 0.0678 | inactive
MPIG6B | 3 | -1.1 | inactive
POLR1D | 1 | -0.0727 | inactive
POLR1D | 2 | 0.544 | inactive
POLR1D | 3 | -1.12 | inactive
TMEM168 | 1 | 0.433 | inactive
TMEM168 | 2 | -0.399 | inactive
TMEM168 | 3 | 0.186 | inactive
IL17RA | 1 | -1.12 | inactive
IL17RA | 2 | -0.123 | inactive
IL17RA | 3 | 2.77 | inactive
